Among the test systems are MZ2-MEL; MeWo; RPMI7951; RVH-421; SkMel28; SkMel2; SkMel30; UACC62.
What all share (assay): cleaved PARP positive nuclei fraction relative to DMSO control; melanoma cells; higher = more apoptosis
What all share (conditions): library dose: low library concentration; 72 h

Some of the results follow. Repeats are few or missing, and single values can be far off.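 Imaging used 1,536-well plates; nuclei positive for cleaved PARP by antibody were divided by total DNA-stained nuclei to yield the apoptosis fraction. Doses for screening kept most cells viable, and cell lines differ markedly in resting and induced cleaved-PARP levels.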

Consider `COc1ccc(C2=N[C@@H](c3ccc(Cl)cc3)[C@@H](c3ccc(Cl)cc3)N2C(=O)N2CCNC(=O)C2)c(OC(C)C)c1` [Nutlin-3] + NC1(c2ccc(-c3nc4ccn5c(=O)[nH]nc5c4cc3-c3ccccc3)cc2)CCC1 [MK2206] (first compound 0.1 µM, partner dose 0.4 µM), for which the “cleaved PARP positive nuclei fraction” value with MZ2-MEL was 118%; with MeWo, 58.3%; with RPMI7951, 61.1%; with RVH-421, 53.7%; in the experiment with SkMel28 it was 119%; in the experiment with SkMel2, 120%. The “cleaved PARP positive nuclei fraction” value in the experiment with SkMel30 worked out at 234%; in the experiment on UACC62 it was 185%.
With `CCN(CC)CCNC(=O)c1c(C)[nH]c(/C=C2\C(=O)Nc3ccc(F)cc32)c1C` [sunitinib] + C=CCNC1=C2C[C@@H](C)C[C@H](OC)[C@H](O)[C@@H](C)/C=C(\C)[C@H](OC(N)=O)[C@@H](OC)/C=C\C=C(/C)C(=O)NC(=CC1=O)C2=O [Tanespimycin] (first compound 0.4 µM, partner dose 0.002 µM), the “cleaved PARP positive nuclei fraction” value was 94% in the experiment on MZ2-MEL; 654% in the experiment on MeWo; 34.5% in the experiment on RPMI7951; 103% with RVH-421; 36.3% in the experiment with SkMel28; 75.7% in the experiment with SkMel2. The “cleaved PARP positive nuclei fraction” value in the experiment on SkMel30 came to 271%; in the experiment with UACC62, 118%.
With `C[C@@H](N)c1ccc(C(=O)Nc2ccnc3[nH]ccc23)cc1` + OCc1c[nH]c2ccccc12 [Indole-3-carbinol] (first compound 0.4 µM, partner dose 0.8 µM), the “cleaved PARP positive nuclei fraction” value stood at 88.6% in the experiment on MZ2-MEL; 352% in the experiment on MeWo; 67.9% in the experiment on RPMI7951; 202% with RVH-421; 66.5% with SkMel28; 183% in the experiment on SkMel2. Further, the “cleaved PARP positive nuclei fraction” value in the experiment with SkMel30 was 75.1%; with UACC62, 128%.
Turning to `COc1ccc(C2=N[C@@H](c3ccc(Cl)cc3)[C@@H](c3ccc(Cl)cc3)N2C(=O)N2CCNC(=O)C2)c(OC(C)C)c1` [Nutlin-3] + C#Cc1cccc(Nc2ncnc3cc(OCCOC)c(OCCOC)cc23)c1 [erlotinib] (first compound 0.1 µM, partner dose 0.8 µM), the “cleaved PARP positive nuclei fraction” value in the experiment with MZ2-MEL is 173%; in the experiment on MeWo, 62.6%; with RPMI7951, 66.5%; in the experiment with RVH-421, 58.8%; in the experiment with SkMel28 it was 119%; with SkMel2 it was 97.7%. In addition, the “cleaved PARP positive nuclei fraction” value in the experiment on SkMel30 came out at 103%; in the experiment on UACC62 it was 44.2%.
In the case of `CCCCCCCCc1ccc(CCC(N)(CO)CO)cc1` [fingolimod] + COCC[n+]1c2c(n(Cc3cnccn3)c1C)C(=O)c1ccccc1C2=O [YM155] (first compound 2 µM, partner dose 0.0004 µM), the “cleaved PARP positive nuclei fraction” value with MZ2-MEL worked out at 150%; in the experiment on MeWo, 28.8%; in the experiment on RPMI7951 it was 122%; in the experiment with RVH-421, 58.5%; in the experiment on SkMel28, 93%; in the experiment on SkMel2 it was 102%. The figures for the “cleaved PARP positive nuclei fraction” value in the experiment with SkMel30 and in the experiment with UACC62 were 90% and 43.9%, respectively.
Consider `COc1ccc(C2=N[C@@H](c3ccc(Cl)cc3)[C@@H](c3ccc(Cl)cc3)N2C(=O)N2CCNC(=O)C2)c(OC(C)C)c1` [Nutlin-3] + CC(=O)O[C@@]12CO[C@@H]1C[C@H](O)[C@@]1(C)C(=O)[C@H](O)C3=C(C)[C@@H](OC(=O)[C@H](O)[C@@H](NC(=O)OC(C)(C)C)c4ccccc4)C[C@@](O)([C@@H](OC(=O)c4ccccc4)[C@H]21)C3(C)C [Docetaxel] (first compound 0.1 µM, partner dose 0.0001 µM), for which the “cleaved PARP positive nuclei fraction” value with MZ2-MEL was determined as 483%; in the experiment on MeWo it was 500%; in the experiment on RPMI7951 it was 72.4%; with RVH-421 it was 208%; in the experiment on SkMel28, 120%; with SkMel2, 420%. Further, the “cleaved PARP positive nuclei fraction” value with SkMel30 stood at 221%; with UACC62, 591%.
As to `CCCCCCCCc1ccc(CCC(N)(CO)CO)cc1` [fingolimod] + NC1(c2ccc(-c3nc4ccn5c(=O)[nH]nc5c4cc3-c3ccccc3)cc2)CCC1 [MK2206] (first compound 2 µM, partner dose 0.4 µM), the “cleaved PARP positive nuclei fraction” value in the experiment with MZ2-MEL is 164%; in the experiment with MeWo, 119%; in the experiment on RPMI7951 it was 35.4%; in the experiment on RVH-421, 199%; in the experiment on SkMel28 it was 170%; with SkMel2, 99.5%. Moreover, the “cleaved PARP positive nuclei fraction” value turned out to be 83% in the experiment with SkMel30 and 138% in the experiment on UACC62.
Turning to `NC(=O)c1ccc(N(C(N)=O)c2c(F)cccc2F)nc1-c1ccc(F)cc1F` + O=C(O)[C@@H]1[O][Sb](=[O])([O][Sb]2(=[O])[O][C@H]([C@H](O)CO)[C@H](O)[C@H](C(=O)O)[O]2)[O][C@H]([C@H](O)CO)[C@@H]1O [stibogluconate] (first compound 0.4 µM, partner dose 2 µM), the “cleaved PARP positive nuclei fraction” value with MZ2-MEL turned out to be 38.2%; in the experiment with MeWo, 66.7%; with RPMI7951 it was 103%; with RVH-421, 34.3%; with SkMel28, 67.3%; in the experiment with SkMel2, 46.6%. In addition, the entries for the “cleaved PARP positive nuclei fraction” value in the experiment with SkMel30 and with UACC62 were 15.6% and 57.4%, respectively.
In the case of `CS(=O)(=O)c1ccc(C(=O)Nc2ccc(Cl)c(-c3ccccn3)c2)c(Cl)c1` [vismodegib] + CCN(CC)CCNC(=O)c1c(C)[nH]c(/C=C2\C(=O)Nc3ccc(F)cc32)c1C [sunitinib] (first compound 1 µM, partner dose 0.4 µM), the “cleaved PARP positive nuclei fraction” value came to 121% in the experiment on MZ2-MEL; 74.4% in the experiment with MeWo; 328% in the experiment on RPMI7951; 136% with RVH-421; 74.9% with SkMel28; 94% in the experiment on SkMel2. The figures for the “cleaved PARP positive nuclei fraction” value in the experiment on SkMel30 and with UACC62 were 53.8% and 78%, respectively.
`CC(=O)O[C@@]12CO[C@@H]1C[C@H](O)[C@@]1(C)C(=O)[C@H](O)C3=C(C)[C@@H](OC(=O)[C@H](O)[C@@H](NC(=O)OC(C)(C)C)c4ccccc4)C[C@@](O)([C@@H](OC(=O)c4ccccc4)[C@H]21)C3(C)C` [Docetaxel] + Nc1nc(F)nc2c1ncn2[C@@H]1O[C@H](CO)[C@@H](O)[C@@H]1O [fludarabine] (first compound 0.0001 µM, partner dose 0.2 µM): the “cleaved PARP positive nuclei fraction” value in the experiment with MZ2-MEL was found to be 494%; with MeWo it was 2050%; in the experiment on RPMI7951 it was 461%; with RVH-421, 92.1%; in the experiment with SkMel28, 432%; with SkMel2, 759%. The figures for the “cleaved PARP positive nuclei fraction” value with SkMel30 and with UACC62 were 809% and 960%, respectively.
As to `CS(=O)(=O)c1ccc(C(=O)Nc2ccc(Cl)c(-c3ccccn3)c2)c(Cl)c1` [vismodegib] + CCCCCCCCc1ccc(CCC(N)(CO)CO)cc1 [fingolimod] (first compound 1 µM, partner dose 2 µM), the “cleaved PARP positive nuclei fraction” value came to 103% in the experiment with MZ2-MEL; 115% with MeWo; 38.7% with RPMI7951; 83.4% in the experiment with RVH-421; 87.8% in the experiment with SkMel28; 108% in the experiment on SkMel2. Moreover, the “cleaved PARP positive nuclei fraction” value with SkMel30 came to 52.2%; in the experiment on UACC62, 193%.
Consider `CS(=O)(=O)c1ccc(C(=O)Nc2ccc(Cl)c(-c3ccccn3)c2)c(Cl)c1` [vismodegib] + CS(=O)(=O)CCNCc1ccc(-c2ccc3ncnc(Nc4ccc(OCc5cccc(F)c5)c(Cl)c4)c3c2)o1 [lapatinib] (first compound 1 µM, partner dose 0.8 µM), for which the “cleaved PARP positive nuclei fraction” value was found to be 88.9% with MZ2-MEL; 106% in the experiment on MeWo; 164% in the experiment with RPMI7951; 172% in the experiment with RVH-421; 207% with SkMel28; 40.8% with SkMel2. Also, the “cleaved PARP positive nuclei fraction” value with SkMel30 came to 53.9%; in the experiment with UACC62, 26.4%.
As to `Cn1cnc2c(F)c(Nc3ccc(Br)cc3Cl)c(C(=O)NOCCO)cc21` [selumetinib] + CNC(=O)c1cc(Oc2ccc(NC(=O)Nc3ccc(Cl)c(C(F)(F)F)c3)cc2)ccn1 [sorafenib] (first compound 0.015 µM, partner dose 0.4 µM), the “cleaved PARP positive nuclei fraction” value with MZ2-MEL worked out at 60.5%; in the experiment on MeWo it was 143%; with RPMI7951, 170%; in the experiment on RVH-421 it was 75.8%; in the experiment on SkMel28 it was 51%; in the experiment with SkMel2, 118%. For the same molecule, the “cleaved PARP positive nuclei fraction” value with SkMel30 came to 81.2%; in the experiment with UACC62, 247%.
Take `CS(=O)(=O)c1ccc(C(=O)Nc2ccc(Cl)c(-c3ccccn3)c2)c(Cl)c1` [vismodegib] + OCc1c[nH]c2ccccc12 [Indole-3-carbinol] (first compound 1 µM, partner dose 0.8 µM): the “cleaved PARP positive nuclei fraction” value in the experiment on MZ2-MEL came to 33.8%; in the experiment with MeWo it was 31.5%; with RPMI7951, 100%; in the experiment on RVH-421, 68.5%; in the experiment with SkMel28, 124%; with SkMel2 it was 109%. Besides, the “cleaved PARP positive nuclei fraction” value came out at 90.8% in the experiment on SkMel30 and 145% in the experiment with UACC62.
On to `CC1(C)CCC(c2ccc(Cl)cc2)=C(CN2CCN(c3ccc(C(=O)NS(=O)(=O)c4ccc(N[C@H](CCN5CCOCC5)CSc5ccccc5)c(S(=O)(=O)C(F)(F)F)c4)cc3)CC2)C1` + C#Cc1cccc(Nc2ncnc3cc(OCCOC)c(OCCOC)cc23)c1 [erlotinib] (first compound 0.4 µM, partner dose 0.8 µM), for which the “cleaved PARP positive nuclei fraction” value with MZ2-MEL is 347%; in the experiment with MeWo it was 552%; in the experiment on RPMI7951, 233%; in the experiment on RVH-421 it was 125%; in the experiment with SkMel28, 80.8%; in the experiment on SkMel2, 134%. Also, the “cleaved PARP positive nuclei fraction” value stood at 458% with SkMel30 and 91% in the experiment with UACC62.
For `Cn1sc(=O)n(Cc2ccccc2)c1=O` + CCN(CC)CCNC(=O)c1c(C)[nH]c(/C=C2\C(=O)Nc3ccc(F)cc32)c1C [sunitinib] (first compound 0.4 µM, partner dose 0.4 µM), the “cleaved PARP positive nuclei fraction” value in the experiment on MZ2-MEL is 58.9%; with MeWo, 50.4%; in the experiment with RPMI7951, 25%; in the experiment with RVH-421 it was 109%; with SkMel28 it was 15.6%; with SkMel2 it was 57.4%. The “cleaved PARP positive nuclei fraction” value in the experiment with SkMel30 is 89.1%; in the experiment with UACC62, 73%.
Regarding `C[C@]1(O)C[C@@H](c2nc(-c3ccc4ccc(-c5ccccc5)nc4c3)c3c(N)nccn32)C1` + CS(=O)(=O)c1ccc(C(=O)Nc2ccc(Cl)c(-c3ccccn3)c2)c(Cl)c1 [vismodegib] (first compound 0.4 µM, partner dose 1 µM), the “cleaved PARP positive nuclei fraction” value in the experiment with MZ2-MEL came out at 92%; in the experiment with MeWo, 143%; in the experiment on RPMI7951, 81.9%; with RVH-421, 43.6%; in the experiment with SkMel28, 82.7%; with SkMel2 it was 63.6%. Moreover, the “cleaved PARP positive nuclei fraction” value was determined as 34.8% with SkMel30 and 115% in the experiment with UACC62.

Source of the values: the supplement of paper PMC4604168 (melanoma cell lines).
